Library screening results

Amino acid sequences for entries named in this document (tags omitted).
UniProt E9BF75, entry or part of it: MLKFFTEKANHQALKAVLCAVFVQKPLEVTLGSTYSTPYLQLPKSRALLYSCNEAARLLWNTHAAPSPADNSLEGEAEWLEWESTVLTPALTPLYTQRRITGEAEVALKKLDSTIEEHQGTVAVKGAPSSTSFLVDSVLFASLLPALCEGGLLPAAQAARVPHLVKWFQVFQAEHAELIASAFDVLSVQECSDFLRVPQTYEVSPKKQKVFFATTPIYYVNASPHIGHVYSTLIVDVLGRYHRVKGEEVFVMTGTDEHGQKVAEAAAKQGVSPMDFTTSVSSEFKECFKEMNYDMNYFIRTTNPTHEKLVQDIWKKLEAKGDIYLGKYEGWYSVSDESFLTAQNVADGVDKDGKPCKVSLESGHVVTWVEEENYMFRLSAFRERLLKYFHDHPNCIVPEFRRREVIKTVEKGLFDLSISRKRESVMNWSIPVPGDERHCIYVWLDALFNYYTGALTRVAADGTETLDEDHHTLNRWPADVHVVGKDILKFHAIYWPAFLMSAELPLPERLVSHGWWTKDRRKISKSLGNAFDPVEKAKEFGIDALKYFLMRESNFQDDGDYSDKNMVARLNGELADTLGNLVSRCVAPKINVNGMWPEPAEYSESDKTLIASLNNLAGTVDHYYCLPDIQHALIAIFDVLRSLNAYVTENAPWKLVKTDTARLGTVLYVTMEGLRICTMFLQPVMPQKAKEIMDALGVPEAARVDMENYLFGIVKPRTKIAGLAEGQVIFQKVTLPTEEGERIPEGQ

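Primary screen of methionyl-tRNA synthetase; the read-out is not stated. Target: Methionyl-tRNA synthetase (putative), Leishmania donovani (UniProt E9BF75). The test concentration is not given. The values are filed as inhibition. Size under these conditions: about 68,000 compounds, about 24 of them at 50% or above in at least one test.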

All values are in %.
The controls that fix the scale are not given in the record; negative values are as filed.
Compounds were drawn at random from those tested, without regard to their results.

* Cc1ccc(C2CSCCN2C(=O)c2cnsn2)o1 (centres unmarked) | 7.434%
* Cc1cc(NS(=O)(=O)c2ccc(C(=O)O)cc2F)ccc1F | 10.26%
* c1ccc(Cc2cccc(C3CCCN3C3CCOCC3)n2)cc1 (centres unmarked) | 20.19%
* CO[C@@H]1c2ccccc2C2(CCN(C(=O)CNC(=O)C(C)C)CC2)[C@H]1O | 11.38%
* OC1CCN(CCCn2ccnc2-c2c[nH]cn2)CC1 | 3.069%
* CN(CC(=O)N1CC(C)(C)[C@](O)(C2CC2)C1)Cc1cccnc1 | 2.997%
* c1cc(CN2CCC(c3nnc4n3CCCCC4)CC2)c2nonc2c1 | -0.5602%
* CCOc1ccc(S(=O)(=O)Nc2cnc(OC)nc2OC)cc1 | 5.59%
* COC1COC2(CCN(C(=O)c3ccc4ccccc4c3)CC2)C1 (centres unmarked) | 17.14%
* CC(=O)Nc1nc(COc2nc(C)no2)cs1 | 8.02%
* CC(C)C(C)(C#N)NC(=O)Cn1cc(I)cn1 (centres unmarked) | 9.358%
* COCc1ncn2c1CN(S(=O)(=O)Cc1ccc(C)cc1)CC2 | 8.602%
* CC(C)(C)c1coc([C@@H]2COCCN2Cc2ncc[nH]2)n1 | 6.015%
* Cc1cnn(CCC(=O)N2CCCN(c3ccccc3C#N)CC2)c1 | 12.54%
* CCc1nsc(N2CCOC3(CCCC3)C2)n1 | 12.37%
* Cc1noc2nc(C3CCN(Cc4ccccn4)CC3)cc(C(F)F)c12 | 9.605%
* Cc1cnn(CC2CCCN2Cc2nc3ccccc3nc2C)c1 (centres unmarked) | 17.36%
* CS(=O)(=O)c1ccc(CN2CCCCC2c2ccc(F)cc2)cc1 (centres unmarked) | -2.083%
* Cn1cc(CN2CCn3cc(CNC(=O)C4CCC4)nc3C2)cn1 | 20.5%
* Cc1nn(C)c2c(NCc3cccnc3)nc(C(C)C)nc12 | -8.685%
* COCCc1noc(CN2CCCCC2Cn2cccn2)n1 (centres unmarked) | 23.65%
* COCCN(C)C[C@H]1C[C@@H](CO)CN(C(=O)c2ccn(C)c(=O)c2)C1 | -12.32%
* Cc1nc(CN(C)C(=O)C2CC(=O)N(c3cccc(O)c3)C2)cs1 (centres unmarked) | 6.689%
* N#CC1(NC(=O)CN2CCc3c(ncn3C3CC3)C2)CCCC1 | 8.761%
* CCC(O)CN(Cc1ccccc1)S(=O)(=O)c1cnc(C)s1 (centres unmarked) | 12.59%
* Cc1noc(C)c1CN1CCCC1c1nc(-c2ccccc2)no1 (centres unmarked) | 18.8%
* N#Cc1c(F)cccc1N1CCCC(C(=O)Nc2nncs2)C1 (centres unmarked) | 10.42%
* CC(Cn1ccnc1)NC(=O)NCCN1CCCCCC1=O (centres unmarked) | 11.45%
* CCC(CO)NC(=O)c1ccc2ccc(N(C)CC3CC3)n2c1 (centres unmarked) | 16.5%
* Fc1ccc(C2CN(CCc3ccncc3)CCO2)cc1 (centres unmarked) | 2.688%
* CSCc1cc(F)ccc1CNC(=O)N1CCCC(CO)C1 (centres unmarked) | 4.693%
* CN(C)CCN1C(=O)CCC12CCCN(C(=O)C1CC=CC1)CC2 (centres unmarked) | 18.49%
* O=C(NCC1=CCCCC1)C(c1cccnc1)N1CCOCC1 (centres unmarked) | 5.301%
* CCCC(=O)NC1CCCN(c2cncc(Br)c2)C1 (centres unmarked) | 13.94%
* CCn1ccnc1CN1CCCN(C(=O)c2cnn(C)c2)CC1 | 15.79%

The last 4 entries again:

| Compound | Inhibition |
|---|---|
| `CN(C)CCN1C(=O)CCC12CCCN(C(=O)C1CC=CC1)CC2` (centres unmarked) | 18.49% |
| `O=C(NCC1=CCCCC1)C(c1cccnc1)N1CCOCC1` (centres unmarked) | 5.301% |
| `CCCC(=O)NC1CCCN(c2cncc(Br)c2)C1` (centres unmarked) | 13.94% |
| `CCn1ccnc1CN1CCCN(C(=O)c2cnn(C)c2)CC1` | 15.79% |

Data taken from ChEMBL document CHEMBL3988442, “University of Dundee, Small-Polar-MMV Screening Library” (2021).